No constants are given. Whether binding was seen depends on the method and setting. Binding seen in cells or lysates may run through a third protein. Some results given as binding are weak or reduced against the parent protein; the word gives no strength.
Target: FUS (fused in sarcoma/translocated in liposarcoma), endogenous in embryonic mouse ovary (mouse (endogenous in embryonic mouse ovary)) (UniProt P56959)
Test: co-IP; endogenous proteins in embryonic mouse ovary lysates; antibody on Protein A/G magnetic beads, 1 h at room temperature; immunoblotting; IgG as negative control; also lysates of cultured ovaries transfected with control or AD-Hfm1i (FUS with FBXW11 increased, FUS with MDM2 not changed significantly)

Sequences of proteins named here, by UniProt entry; tags and fusion partners are left off.
UniProt P56959: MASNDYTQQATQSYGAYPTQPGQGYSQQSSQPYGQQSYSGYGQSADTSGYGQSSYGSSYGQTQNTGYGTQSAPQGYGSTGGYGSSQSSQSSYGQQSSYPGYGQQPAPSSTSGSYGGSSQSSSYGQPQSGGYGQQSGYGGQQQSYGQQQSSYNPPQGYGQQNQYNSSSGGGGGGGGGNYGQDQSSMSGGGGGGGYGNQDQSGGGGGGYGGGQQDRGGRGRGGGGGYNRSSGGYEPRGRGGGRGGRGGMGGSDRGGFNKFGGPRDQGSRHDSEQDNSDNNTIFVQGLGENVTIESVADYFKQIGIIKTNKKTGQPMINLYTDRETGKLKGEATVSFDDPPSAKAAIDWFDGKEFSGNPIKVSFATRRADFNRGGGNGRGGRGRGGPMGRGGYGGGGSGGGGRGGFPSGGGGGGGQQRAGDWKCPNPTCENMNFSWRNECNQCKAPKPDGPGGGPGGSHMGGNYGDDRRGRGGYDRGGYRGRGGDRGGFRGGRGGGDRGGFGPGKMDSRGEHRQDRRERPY
UniProt P48754: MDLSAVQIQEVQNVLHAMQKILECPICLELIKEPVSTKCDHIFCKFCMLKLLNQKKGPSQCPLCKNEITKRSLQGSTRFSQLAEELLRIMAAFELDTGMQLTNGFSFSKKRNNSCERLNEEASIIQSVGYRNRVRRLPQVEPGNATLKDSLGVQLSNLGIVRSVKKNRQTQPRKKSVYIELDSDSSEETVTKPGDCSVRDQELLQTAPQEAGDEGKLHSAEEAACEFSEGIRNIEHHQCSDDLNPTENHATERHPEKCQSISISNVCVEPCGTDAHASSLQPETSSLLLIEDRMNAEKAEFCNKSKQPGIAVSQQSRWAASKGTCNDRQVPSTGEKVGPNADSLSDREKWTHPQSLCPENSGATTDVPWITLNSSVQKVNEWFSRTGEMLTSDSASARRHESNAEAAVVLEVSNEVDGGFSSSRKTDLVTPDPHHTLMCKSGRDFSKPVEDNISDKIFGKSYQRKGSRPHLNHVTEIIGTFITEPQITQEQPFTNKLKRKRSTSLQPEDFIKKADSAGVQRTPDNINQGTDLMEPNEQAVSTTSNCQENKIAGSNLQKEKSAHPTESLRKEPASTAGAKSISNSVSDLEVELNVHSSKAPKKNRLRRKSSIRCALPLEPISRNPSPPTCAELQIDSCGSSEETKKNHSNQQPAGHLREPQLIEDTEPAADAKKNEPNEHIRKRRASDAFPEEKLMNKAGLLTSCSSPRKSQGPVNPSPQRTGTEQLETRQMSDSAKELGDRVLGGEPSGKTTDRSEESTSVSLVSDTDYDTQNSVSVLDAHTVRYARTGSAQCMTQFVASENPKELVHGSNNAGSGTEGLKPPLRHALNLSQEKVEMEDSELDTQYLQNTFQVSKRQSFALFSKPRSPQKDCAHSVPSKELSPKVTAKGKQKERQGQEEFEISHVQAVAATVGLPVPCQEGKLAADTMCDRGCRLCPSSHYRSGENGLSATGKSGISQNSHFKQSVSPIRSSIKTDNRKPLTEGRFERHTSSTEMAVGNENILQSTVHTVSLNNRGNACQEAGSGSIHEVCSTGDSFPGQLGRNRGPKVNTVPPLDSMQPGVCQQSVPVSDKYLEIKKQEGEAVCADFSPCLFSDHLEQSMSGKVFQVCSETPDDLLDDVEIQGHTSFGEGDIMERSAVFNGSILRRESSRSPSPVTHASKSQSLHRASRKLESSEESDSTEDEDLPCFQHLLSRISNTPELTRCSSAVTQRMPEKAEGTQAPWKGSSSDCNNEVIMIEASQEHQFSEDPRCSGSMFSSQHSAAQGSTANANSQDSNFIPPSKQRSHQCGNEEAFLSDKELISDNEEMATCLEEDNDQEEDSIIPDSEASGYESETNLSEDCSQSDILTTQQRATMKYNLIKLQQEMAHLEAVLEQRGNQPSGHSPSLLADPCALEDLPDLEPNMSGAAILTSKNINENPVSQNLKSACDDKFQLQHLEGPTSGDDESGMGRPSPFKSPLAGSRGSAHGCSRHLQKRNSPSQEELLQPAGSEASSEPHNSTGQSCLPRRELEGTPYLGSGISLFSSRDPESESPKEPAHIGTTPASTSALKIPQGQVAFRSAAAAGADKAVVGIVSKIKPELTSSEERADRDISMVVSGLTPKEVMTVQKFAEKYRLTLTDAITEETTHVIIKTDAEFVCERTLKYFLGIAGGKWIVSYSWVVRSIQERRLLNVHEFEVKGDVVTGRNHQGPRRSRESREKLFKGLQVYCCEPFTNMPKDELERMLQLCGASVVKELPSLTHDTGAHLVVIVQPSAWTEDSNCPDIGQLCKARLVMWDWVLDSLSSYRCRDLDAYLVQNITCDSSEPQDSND
UniProt P23804: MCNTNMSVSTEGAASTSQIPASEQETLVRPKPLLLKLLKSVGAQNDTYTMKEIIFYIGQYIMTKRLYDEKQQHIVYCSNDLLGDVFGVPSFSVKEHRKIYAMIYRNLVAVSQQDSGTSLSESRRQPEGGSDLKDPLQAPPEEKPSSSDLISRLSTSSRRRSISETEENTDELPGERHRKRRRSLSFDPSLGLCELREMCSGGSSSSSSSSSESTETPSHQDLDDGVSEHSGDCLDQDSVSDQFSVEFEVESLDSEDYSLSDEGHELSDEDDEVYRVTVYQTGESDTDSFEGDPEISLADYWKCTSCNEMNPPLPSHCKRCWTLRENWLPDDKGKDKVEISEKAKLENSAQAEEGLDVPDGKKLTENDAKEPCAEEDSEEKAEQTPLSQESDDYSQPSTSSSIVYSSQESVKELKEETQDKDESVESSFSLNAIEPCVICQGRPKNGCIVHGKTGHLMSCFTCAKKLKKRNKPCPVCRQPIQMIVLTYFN

Breast cancer susceptibility gene 1 (BRCA1), endogenous in embryonic mouse ovary (from UniProt P48754 1-1812)
binding: binds

MDM2, endogenous in embryonic mouse ovary (from UniProt P23804 1-489)
binding: binds
